Out of some 320,000 compounds screened, about 620 (0.19%) were called active. This list was built around the results that the source calls inconclusive (neither active nor inactive); the mix of calls is not that of the screen. No stated cut-off is given here; in the data, active means activation above about 80%; inconclusive means between about 30% and that limit; inactive means weaker than that.
molecular target: Transient receptor potential cation channel subfamily V member 1 (Homo sapiens) (UniProt Q8NER1); test: HTS Assay for Compounds that Act as Agonists of the Vanilloid Receptor 1; conditions: TRPV1-expressing cells, Fluo-8 calcium influx, agonist mode; at 8.33 µM, active compounds read high; further: 0% is about no effect
How it was run: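 Cells expressing TRPV1 were dye-loaded with Fluo-8 and read kinetically: 10 s baseline, 3 min after compound (agonist portion), then 2 min after EC20 capsaicin (allosteric enhancer portion). Calcium-bound dye fluorescence at 480/520 nm.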

Sequences of proteins named here, by UniProt entry; tags and fusion partners are left off.
UniProt Q8NER1, whole entry, looked up: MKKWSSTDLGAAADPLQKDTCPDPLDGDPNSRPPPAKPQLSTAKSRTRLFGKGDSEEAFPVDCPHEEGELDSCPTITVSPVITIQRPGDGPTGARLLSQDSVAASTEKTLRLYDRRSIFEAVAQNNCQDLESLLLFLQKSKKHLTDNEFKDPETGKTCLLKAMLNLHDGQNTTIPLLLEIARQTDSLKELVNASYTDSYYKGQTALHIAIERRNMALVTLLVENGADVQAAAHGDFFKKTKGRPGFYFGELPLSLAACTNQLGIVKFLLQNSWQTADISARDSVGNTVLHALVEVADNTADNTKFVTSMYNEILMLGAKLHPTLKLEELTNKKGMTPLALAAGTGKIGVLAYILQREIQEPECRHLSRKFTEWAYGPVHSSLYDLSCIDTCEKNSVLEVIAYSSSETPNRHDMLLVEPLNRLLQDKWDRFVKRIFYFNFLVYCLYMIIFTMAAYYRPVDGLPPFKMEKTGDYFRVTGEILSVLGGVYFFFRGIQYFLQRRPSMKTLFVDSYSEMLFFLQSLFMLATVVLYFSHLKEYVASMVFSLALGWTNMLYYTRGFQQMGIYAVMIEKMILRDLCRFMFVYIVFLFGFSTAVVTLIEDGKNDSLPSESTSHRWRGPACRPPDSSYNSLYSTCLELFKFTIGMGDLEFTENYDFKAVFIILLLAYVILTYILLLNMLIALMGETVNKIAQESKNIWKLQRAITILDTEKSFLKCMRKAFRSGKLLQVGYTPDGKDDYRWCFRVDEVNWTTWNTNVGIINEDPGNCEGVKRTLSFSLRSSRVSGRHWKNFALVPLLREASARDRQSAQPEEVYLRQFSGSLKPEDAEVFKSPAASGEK

SMILES	activation
FC(F)(F)c1ccc(Cl)c(NC(=S)NC2CC2)c1	inactive: 1.73%
CCOC(=O)C1=C(CC)OC(N)=C(C#N)C1c1ccc(OC)c(C)c1OC (stereo unspecified)	inconclusive: 36.8%
O=C(NC1CCCCCCC1)c1ccc(F)cc1	inconclusive: 62.6%
S=C(NC1CCCCC1)N1CCc2ccccc2C1	inconclusive: 48.6%
COc1ccc(CN2CCN(C(=O)c3ccc(CNS(=O)(=O)c4ccc(C)cc4)cc3)CC2)c(OC)c1OC	inactive: 0.472%
CCCOP(=O)(OCCC)c1nc(-c2ccccc2)oc1NCc1ccccc1	inconclusive: 77.2%
O=C(NCc1ccccc1F)c1ccc2ccccc2n1	inconclusive: 40.5%
OCCN1CCN(CC(O)COc2ccc(C34CC5CC(CC(C5)C3)C4)cc2)CC1 (stereo unspecified)	inactive: 2.36%
CC(=O)c1cnc(Nc2nc(C)c3cc(C)c(C)cc3n2)nc1C	inactive: -5.35%
COc1ccccc1CC(=O)NNC(=O)c1ccc(C(C)(C)C)cc1	inconclusive: 44.2%
Cc1ccc(C(C)C)c(OCCn2c(=O)oc3ccccc32)c1	inactive: 0.312%
CC1CCCN(C(=O)COc2ccc(-c3ccccc3)cc2)C1 (stereo unspecified)	inconclusive: 31.8%
Cc1ccc(Nc2nc(N)nc(CN3CCN(Cc4ccc5c(c4)OCO5)CC3)n2)cc1C	inactive: -1.88%
Cc1ccc(SCCN2CCC(C(C)(C)C)CCC2=O)cc1 (stereo unspecified)	inconclusive: 53.2%
Cc1[nH]cnc1C(=O)N/N=C/c1ccc([N+](=O)[O-])s1	inconclusive: 62.8%
NC(=O)[C@@H]1CC2(CC(c3cccc(NC(=O)COc4ccc(Cl)cc4)c3)=NO2)CN1C(=O)COc1ccc(Cl)cc1 (stereo partly specified)	inactive: 4.94%
CCOC(=O)c1ccc(NC(=O)c2nc[nH]c2C(=O)NC2CCN(C(=O)OC(C)(C)C)CC2)cc1	inactive: -1.59%
COc1cc(NC(=S)NCc2cccnc2)cc(OC)c1	inconclusive: 37.5%
Cc1ccc(C(=O)N2CCN(c3cccc(Cl)c3)CC2)cc1C	inconclusive: 46%
Cc1ccc(NC(=O)c2ccc(S(=O)(=O)N3CCCCC3)cc2)cc1	inconclusive: 70.4%
CC(/C=N/NC(=O)c1cccc([N+](=O)[O-])c1)=C\c1ccccc1	inactive: 7.13%
Cc1ccc(SCC(=O)OCC(=O)NC(C)c2ccc(F)cc2)cc1 (stereo unspecified)	inconclusive: 50.5%
O=C(Cc1ccc(Br)cc1)NCCc1ccc(Cl)cc1Cl	inconclusive: 33.6%

SMILES	activation
COc1ccc(CN(Cc2ccc(OC)cc2)C(=O)c2cccs2)cc1	inconclusive: 48.8%
CS(=O)(=O)N(CCc1ccccc1)CC(=O)N1CCc2ccccc2C1	inconclusive: 53.8%
COc1ccc(CC(=O)Nc2cc(S(=O)(=O)N3CCCCC3)ccc2C)cc1OC	inactive: 9.32%
C(=N\NC1=Nc2cccc3cccc1c23)/c1ccccc1	inconclusive: 40.7%
COc1ccc(OC)c(-c2cc(C(=O)Nc3c(C)nn(Cc4ccccc4C)c3C)no2)c1	inactive: -3.43%
Cc1ccc(-c2csc(NC(=O)c3ccc([N+](=O)[O-])o3)n2)cc1	inconclusive: 46.7%
COc1ccc2c(c1)C=C(C(=O)OCc1cccnc1)CO2	inconclusive: 61.9%
COc1ccccc1CNC(=O)c1c(-c2ccccc2Cl)noc1C	inactive: 11.4%
O=S(=O)(NCc1ccncc1)c1ccc(Br)s1	inactive: 3.53%
O=C(CN1CCc2ccccc2C1)Nc1ccccc1F	inconclusive: 48.6%
C/C(=N\Nc1nccnc1Cl)c1ccc(F)cc1	inactive: 0.118%
Cc1ccc(/C=C/C(=O)Nc2ccc(Oc3ccccc3)cc2)o1	inconclusive: 34.8%
COc1ccc(S(=O)(=O)N2CCCCC2)cc1NC(=O)CCNC(=O)c1ccc(Br)cc1	inconclusive: 38.2%
O=C(c1cc(C2CC2)nn1-c1ccccc1)N1CCN(S(=O)(=O)c2cccc(F)c2)CC1	inconclusive: 46.6%
CN1C(=S)SC(C)(C)C1N(O)C(=O)Nc1ccc(Cl)cc1 (stereo unspecified)	inconclusive: 60.1%
COc1ccc(-c2cc(=Nc3ccc(C(=O)O)cc3)c3cc(C)ccc3o2)cc1	inconclusive: 30.5%
O=C(c1ccc(S(=O)(=O)Nc2cccc(C(F)(F)F)c2)cc1)N1CCN(c2ccccc2O)CC1	inactive: -6.62%
CC(=O)CCC1CC(c2ccc(Cl)cc2)=NO1 (stereo unspecified)	inactive: 14.3%
CCC(=O)c1cn(/C(=C\C(=O)OC(C)(C)C)CCC(OC)OC)cc1CC	inconclusive: 48.3%
Cc1ccc(S(=O)(=O)Nc2cc(C(=O)NCCN(C)C)ccc2N2CCCCC2)cc1	inconclusive: 31%
Cc1ccc(NC(=O)/C=C2\NC(=O)CS2)cc1	inconclusive: 38.7%
O=C(Cc1ccccc1)Nc1sc2c(c1C(=O)Nc1ccc(Br)cc1)CCCC2	inconclusive: 33.3%
CC1CC1C(=O)Nc1ccc(-c2ccccc2)cc1 (stereo unspecified)	inconclusive: 59.5%

Random excerpt: five records from the list
SMILES	activation
O=C(CN1CCc2ccccc2C1)Nc1ccccc1F	inconclusive: 48.6%
O=C(c1ccc(S(=O)(=O)Nc2cccc(C(F)(F)F)c2)cc1)N1CCN(c2ccccc2O)CC1	inactive: -6.62%
C(=N\NC1=Nc2cccc3cccc1c23)/c1ccccc1	inconclusive: 40.7%
O=C(Cc1ccccc1)Nc1sc2c(c1C(=O)Nc1ccc(Br)cc1)CCCC2	inconclusive: 33.3%
COc1ccccc1CNC(=O)c1c(-c2ccccc2Cl)noc1C	inactive: 11.4%

Additional entries follow:

SMILES	activation
Cc1cnc(C(=O)Nc2ccc3c(c2)CCC3)cn1	inconclusive: 63.2%
CC(=O)c1ccc(NC(=S)NCc2ccc(Cl)cc2Cl)cc1	inconclusive: 57.4%
CCCn1cc(S(=O)(=O)c2ccc(Cl)cc2)c(=O)c2cc(OC)ccc21	inconclusive: 33.1%
CC1=CC(=O)C=C(C)C1=NOc1ccccc1[N+](=O)[O-]	inactive: 13.8%
Cc1ccc(C(=O)N(CC(=O)NC2CCCC2)Cc2cccs2)s1	inconclusive: 38.2%
N#Cc1c(F)cccc1N1CCN(Cc2ccc3c(c2)OCO3)CC1	inactive: 12.1%
Oc1ccccc1C1=Nc2ncnn2C(c2ccccc2)C1 (stereo unspecified)	inconclusive: 43.2%
CCOc1cc(/C=C2\SC(=S)N(NS(=O)(=O)c3ccccc3)C2=O)ccc1O	inactive: 2.93%
COc1ccc(N2CCN(C(=O)NCc3ccc(OC)c(OC)c3)CC2)cc1	inconclusive: 54.8%
Cc1ccc2c(Cl)c(C(=O)N/N=C/c3cccn3C)sc2c1	inconclusive: 36.4%
CCOC(=O)C1(CCOc2ccccc2)CCN(Cc2ccc(OC)c(COC)c2)CC1	inactive: 0.559%
Cc1cccc(C(=O)OC(C)C(=O)N2CCc3ccccc3C2)c1C (stereo unspecified)	inconclusive: 35.3%
O=C(C/C=N\OCc1ccc(Cl)cc1Cl)Nc1ccccc1	inconclusive: 34.5%
O=C(NCCC1=CCCCC1)c1ccc(-n2cncn2)cc1	inconclusive: 30.5%
CC1CCc2sc(C(=O)NCC3CCCO3)cc2C1 (stereo unspecified)	inconclusive: 67.4%
Cn1cc(/C=C/c2cc[n+](C)cc2)c2cc(F)ccc21	inactive: -6.78%
O=C1NN(c2ccccc2)C(=O)/C1=C/c1ccc(Sc2cccc3ccccc23)o1	inactive: -1.24%
CC1CCCCC1NC(=O)CCCCCn1c(=S)[nH]c2ccsc2c1=O (stereo unspecified)	inactive: 3.73%
CCOC(=O)c1c(CN(C)C)n(-c2ccccc2)c2cc(Br)c(OC)cc12	inconclusive: 38.1%
Cc1ccc(/C=C/C(=O)N2CCC(Cc3ccccc3)CC2)cc1	inconclusive: 46.2%
CCOc1ccc(N(C(=O)c2snc(C(N)=O)c2N)C(C(=O)NC2CCCC2)C(C)C)cc1 (stereo unspecified)	inconclusive: 69.6%
Cc1ccc(Nc2nc3ccccc3c(=O)s2)cc1	inactive: -0.0631%
COc1ccc(-c2cc(NCCc3ccncc3)n3ncnc3n2)cc1	inactive: 1.44%

SMILES	activation
CSc1c(SCc2ccccc2)cnn(Cc2ccccc2)c1=O	inconclusive: 64%
Cc1cc(Cn2nc(C(=O)NCc3cccs3)cc2-c2ccccc2)on1	inactive: -1.31%
c1ccc(Cn2c(CNc3nc4ccccc4n3CCN3CCOCC3)nc3ccccc32)cc1	inconclusive: 30.6%
CC(C)CC(=O)Nc1ccc(C(=O)CN2C(=O)NC3(CCOc4ccccc43)C2=O)cc1 (stereo unspecified)	inconclusive: 69.1%
COc1ccc(N2CCN(CCCNC(=O)c3cc4sccc4n3C)CC2)cc1	inactive: 1.77%
CC(CC(=O)Nc1ccc(F)c([N+](=O)[O-])c1)c1ccccc1 (stereo unspecified)	inconclusive: 41.1%
Nc1ccc(N2C(=O)c3ccccc3C2=O)c(Cl)c1	inactive: 8.36%
O=c1[nH]c2ccccc2nc1Cc1ccccc1	inactive: -7.46%
CN(CC(=O)NCc1ccc(F)cc1)S(=O)(=O)c1ccc(Br)s1	inconclusive: 67.8%
C/C(=N\NC(=O)c1ccoc1C)c1ccc(Cl)s1	inactive: 29.5%
O=C(O)Cc1ccc(C(=O)c2ccc(Cl)cc2Cl)s1	inconclusive: 37.3%
CC(=O)c1cc(NC(=O)c2ccc(C)cc2)c(=O)oc1/C=C/N(C)C	inconclusive: 30.7%
O=C(CSc1ccccn1)N1CCN(c2ncc(C(F)(F)F)cc2Cl)CC1	inconclusive: 41.5%
O=[N+]([O-])c1cc([N+](=O)[O-])c(Oc2cncc(Cl)c2)cc1NN1CCCCC1	inconclusive: 49.3%
O=C(Nc1ccc(F)cc1F)Nc1ccc(F)cc1F	inconclusive: 40.4%
NNC(=O)C1=NOC(CNc2ncc(C(F)(F)F)cc2Cl)C1 (stereo unspecified)	inconclusive: 56.3%
COC(=O)c1ccc(C(=O)NC2CCCN(Cc3ccc(Cl)cc3)C2)nc1 (stereo unspecified)	inconclusive: 70.7%
O=C(c1cc(COc2ccc(F)c(F)c2)on1)N1CCN(C2CCCCC2)C(=O)C1	inactive: 22.9%
S=C(NCCc1ccccc1)N1CCc2ccccc2C1	inconclusive: 66.3%
CCOC(=O)C(=O)c1csc(NC(=O)CCSc2ccc(C)cc2)n1	inactive: 1.25%
Cc1cc(C)n(C(=O)CCCC(=O)n2nc(C)cc2C)n1	inactive: 1.84%
CCOc1ccc(NC(=O)N2CCc3ccccc3C2)cc1	inconclusive: 54.7%

Reference: PubChem BioAssay AID540275 (National Center for Advancing Translational Sciences (NCATS), 2011)
